In the supplement of paper PMC3334620:
The full ranking holds about 33,000 sequences; the median of “E-score (-0.5 to 0.5)” is about -0.0059, and the highest 2% start at about 0.26. This is one part of the list.

Target: T1, Cin5 (UniProt P40917)
T1 sequence: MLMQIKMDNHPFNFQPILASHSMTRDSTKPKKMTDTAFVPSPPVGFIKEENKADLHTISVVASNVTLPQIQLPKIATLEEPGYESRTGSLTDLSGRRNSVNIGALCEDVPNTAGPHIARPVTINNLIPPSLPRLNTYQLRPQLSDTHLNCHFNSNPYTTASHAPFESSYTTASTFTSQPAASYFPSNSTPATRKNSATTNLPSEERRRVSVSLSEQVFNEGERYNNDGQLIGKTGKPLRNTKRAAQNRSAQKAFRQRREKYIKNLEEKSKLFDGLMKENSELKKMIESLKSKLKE
Experiment: PBM E-score (8-mer binding enrichment) (E-score (-0.5 to 0.5)); higher = stronger / more preferred TF binding
Settings: protein concentration: 100 nM; construct: GST-full length
Outline: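 PURExpress in vitro transcription/translation supplied GST-tagged yeast transcription factors, either full-length or DNA-binding domain. Applied at about 100-200 nM to universal all-10-mer Agilent arrays double-stranded by primer extension, the bound protein was detected with fluorescent anti-GST. E-scores, modified Wilcoxon-Mann-Whitney statistics, were given by the Universal PBM Analysis Suite to ungapped eight-base words pooled with their reverse complements after masliner normalisation.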

| Sequence | PBM E-score |
| --- | --- |
| CATGATTA | 0.321 |
| AACGCCAC | -0.137 |
| CAAAGACG | -0.0507 |
| ACTACCCG | -0.0362 |
| AAAGCAGC | 0.0692 |
| CTCATCGA | 0.0271 |
| GCCGCCGC | -0.245 |
| ATGCCGAC | 0.0385 |
| CTACTAAC | 0.147 |
| ATGGGGAC | -0.0188 |
| ACCTCTCA | -0.0138 |
| CCATAGAG | -0.128 |
| GAGACCTA | -0.0702 |
| GCCGTTCA | -0.08 |
| ACCACAAT | -0.00898 |
| GAACGCGC | -0.0696 |
| GCGACGAC | -0.116 |
| AGAGTGGA | 0.0368 |
| CAATGCCC | -0.138 |
| CACCGATC | 0.0284 |
| ACTCACAA | 0.118 |
| AGGTGAAA | 0.118 |
| AATTCATG | 0.154 |
| CCACAAGG | -0.137 |
| GCGGATCC | -0.0308 |

Some of the entries so far, with bars between the fields.
Sequence | PBM E-score
CAAAGACG | -0.0507
ACTACCCG | -0.0362

(cont.)

| Sequence | PBM E-score |
| --- | --- |
| CCACTAGC | -0.0422 |
| GCCCGTAA | 0.0467 |
| AGATCTAA | -0.054 |
| AGAGTGCG | -0.0455 |
| GAAGTTGA | 0.0202 |
| AAGGGTAT | 0.157 |
| CGACCGAA | -0.0336 |
| CAGAGAAG | 0.0142 |
| GGAATAGA | 0.223 |
| AGGCTGAC | 0.0576 |
| CCATAATC | 0.245 |
| AAGCTAGC | -0.0698 |
| ATGCCGTG | -0.0333 |
| ATGAACAG | -0.0835 |
| CAGGCGTC | -0.187 |
| ACTGACAG | 0.122 |
| CTCCTCCA | -0.199 |
| AGAGGAAC | -0.0952 |
| ATGAATAG | 0.148 |
| AGCGTTAG | -0.0177 |
| CCCTTAGG | -0.161 |
| GTGAAAAA | 0.119 |
| CAATCGAC | -0.0333 |
| ACGAGAGT | 0.0806 |
| GTTATTTA | 0.194 |

| Sequence | PBM E-score |
| --- | --- |
| AGCTTAGC | 0.0428 |
| AAAGCTGA | -0.056 |
| AGGTTTCC | -0.0781 |
| CCTCAAAC | -0.0628 |
| CCACCCCG | -0.0979 |
| ATTCTAAG | -0.00535 |
| AATGTCTC | -0.00561 |
| AACAATGA | 0.126 |
| CCCTCCCC | -0.0114 |
| GAAGAGGA | -0.199 |
| ACTCTTCT | 0.077 |
| CTAGCTCC | -0.139 |
| AGGTCCGA | 0.0304 |
| CCCGCGCC | -0.13 |
| ACTTCCAG | -0.0951 |
| AGTAGCCG | 0.0345 |
| AATTAGCG | 0.215 |
| AGAACGTA | 0.116 |
| TCATTGCA | 0.00338 |
| AGAGTAAT | 0.152 |
| TCTCAACA | 0.0118 |
| GAACTCGC | -0.0322 |
| AGGGACAG | -0.22 |
| CGCCCAAC | -0.0562 |
| CAATGCGA | 0.0397 |

| Sequence | PBM E-score |
| --- | --- |
| ACCGCTGG | -0.174 |
| CTGCGGTA | -0.0928 |
| ACCATTTA | 0.0867 |
| CCAATGCG | -0.106 |
| GTTGAAGA | 0.065 |
| GAATATTA | 0.274 |
| GGGCGTAC | -0.0142 |
| CCCAGCTA | -0.132 |
| GCTCATCC | 0.0554 |
| AAACCGCC | 0.0261 |
| CGCACGTA | 0.0256 |
| ACGCCCCC | -0.303 |
| GACCAAGA | 0.0486 |
| CAGACGTA | -0.12 |
| CAGGGATA | -0.0677 |
| TTCACAAA | -0.00255 |
| GAGATTGA | 0.0276 |
| ATGCCGCA | 0.0887 |
| ACCTGGAA | 0.167 |
| CATTCCCA | 0.0801 |
| AGACGACA | 0.0143 |
| ACCATAAG | 0.00751 |
| ATATCTGA | 0.21 |
| CGTGGAGA | -0.111 |
| ACGATTCG | 0.0449 |

| Sequence | PBM E-score |
| --- | --- |
| GGCTTAAC | 0.0634 |
| ATGAGCGG | 0.0526 |
| GAGGCAAC | -0.0956 |
| AAGGGATG | -0.0396 |
| TCCACCGA | -0.0644 |
| CGCTGCTA | -0.141 |
| ACGTCCAA | 0.0138 |
| GTTGGTAA | 0.121 |
| GCTTATAC | 0.183 |
| TCTGGAAA | 0.07 |
| AGAGAGTA | -0.0187 |
| CCCAGGTA | -0.224 |
| CAATGGGC | -0.0862 |
| CCCCTCGA | 0.0859 |
| CGCGATAG | 0.111 |
| GAGAACTC | -0.0556 |
| AAACGCAC | 0.0202 |
| ATCGTACG | 0.154 |
| AACAGCCC | -0.141 |
| AGTGCCTC | -0.355 |
| AATAGCCA | 0.119 |
| AATTAATC | 0.164 |
| GTTGCAAA | 0.119 |
| CTCCGCGC | -0.0937 |
| CTGCATGC | 0.0678 |

| Sequence | PBM E-score |
| --- | --- |
| AGGGTCTC | -0.111 |
| CCGACTAA | -0.0363 |
| TCTCGTCA | 0.122 |
| ATCTATGC | 0.151 |
| GATCTCAC | 0.015 |
| AAGATCAA | 0.19 |
| GACACTAA | 0.115 |
| CAACGGCC | -0.0384 |
| AAGTGTAA | 0.0551 |
| ACTCACTG | 0.00589 |
| AACAACAA | 0.195 |
| AAACGCGC | 0.0535 |
| CGTGTGCA | -0.0136 |
| CAAGTGGG | -0.0937 |
| CACCCGTC | 0.0273 |
| ACAGGTAG | 0.0119 |
| AGCAAGGA | -0.0527 |
| AGCCATTG | 0.113 |
| AAAGTCAT | 0.118 |
| AATGTGAC | 0.0716 |
| GAGCGGAA | 0.161 |
| AGATCCAC | 0.141 |
| AGGACTAA | 0.00777 |
| CACGAGGG | -0.264 |
| AGAATAGC | 0.061 |

| Sequence | PBM E-score |
| --- | --- |
| TGGAGCAA | 0.0281 |
| ATCCTCGG | -0.0226 |
| AGTCGTAC | -0.0879 |
| CCCAATAA | 0.106 |
| ACGAGGGG | -0.299 |
| GCGTTGAC | -0.111 |
| ATCAGACG | 0.0547 |
| ACTGCGGG | -0.0914 |
| AAATGACT | -0.0314 |
| GCAGGTTA | -0.124 |
| TACTGCTA | 0.139 |
| AAACACAT | 0.0346 |
| ATCTGCTC | -0.0403 |
| AGGGCCCT | -0.102 |
| ATCCGGGG | 0.0968 |
| TAAAACTA | 0.2 |
| AATTAACA | 0.191 |
| TGGCGACA | -0.0366 |
| CTATACGC | 0.0876 |
| CTGCTTCC | -0.178 |
| AGAAGTTC | -0.146 |
| GTCGAAAA | -0.00795 |

Fetched one by one from above (six):

| Sequence | PBM E-score |
| --- | --- |
| CTATACGC | 0.0876 |
| CTGCTTCC | -0.178 |
| AGGGCCCT | -0.102 |
| ACGAGGGG | -0.299 |
| ATCTGCTC | -0.0403 |
| ATCCGGGG | 0.0968 |
